The source gives many values for each of these; only a part stands here.
Tested on: TFG-MET allograft tumors
Test: RNA-sequencing, differential expression and GSEA of TFG-MET allograft tumors
Type: in vivo, mouse
Details: CAP.v.Veh
Protocol: Error bars display standard error of mean, statistical significance was determined using t-test analysis. (****;p<0.0001, ***;p<0.001, **;p<0.01, *;p<0.05). […] Each dot represents an individual replicate. Error bars display standard error of the mean.
Each dot represents one gene.

[1] = GOCC_ACTIN_BASED_CELL_PROJECTION
[2] = GOCC_AMPA_GLUTAMATE_RECEPTOR_COMPLEX
[3] = GOCC_ANAPHASE_PROMOTING_COMPLEX
[4] = GOCC_ANCHORED_COMPONENT_OF_EXTERNAL_SIDE_OF_PLASMA_MEMBRANE
[5] = GOCC_ANCHORED_COMPONENT_OF_PLASMA_MEMBRANE
[6] = GOCC_APICOLATERAL_PLASMA_MEMBRANE
[7] = GOCC_BASOLATERAL_PLASMA_MEMBRANE
[8] = GOCC_CARBOXY_TERMINAL_DOMAIN_PROTEIN_KINASE_COMPLEX
[9] = GOCC_CLATHRIN_COATED_VESICLE_MEMBRANE
[10] = GOCC_CLATHRIN_COAT_OF_COATED_PIT
[11] = GOCC_CLUSTER_OF_ACTIN_BASED_CELL_PROJECTIONS
[12] = GOCC_COLLAGEN_CONTAINING_EXTRACELLULAR_MATRIX
[13] = GOCC_COMPLEX_OF_COLLAGEN_TRIMERS
[14] = GOCC_CONDENSED_NUCLEAR_CHROMOSOME_KINETOCHORE
[15] = GOCC_COPII_COATED_ER_TO_GOLGI_TRANSPORT_VESICLE
[16] = GOCC_COPI_COATED_VESICLE_MEMBRANE
[17] = GOCC_CORTICAL_ACTIN_CYTOSKELETON
[18] = GOCC_CUL3_RING_UBIQUITIN_LIGASE_COMPLEX
[19] = GOCC_CUL4_RING_E3_UBIQUITIN_LIGASE_COMPLEX
[20] = GOCC_CULLIN_RING_UBIQUITIN_LIGASE_COMPLEX
[21] = GOCC_CYTOPLASMIC_DYNEIN_COMPLEX
[22] = GOCC_CYTOSOLIC_SMALL_RIBOSOMAL_SUBUNIT
[23] = GOCC_ENDOPLASMIC_RETICULUM_LUMEN
[24] = GOCC_ENDOPLASMIC_RETICULUM_PROTEIN_CONTAINING_COMPLEX

CNC(=O)c1ccc(-c2cnc3ncc(Cc4ccc5ncccc5c4)n3n2)cc1F [Capmatinib]
ES (GOCC_ACROSOMAL_MEMBRANE): -0.4656
NES (GOCC_ACROSOMAL_MEMBRANE): -1.298
ES (GOCC_ACROSOMAL_VESICLE): 0.2508
NES (GOCC_ACROSOMAL_VESICLE): 1.196
ES [1]: -0.2482
NES [1]: -1.099
ES (GOCC_ACTIN_CYTOSKELETON): -0.2142
NES (GOCC_ACTIN_CYTOSKELETON): -1.015
ES (GOCC_ACTIN_FILAMENT): -0.3022
NES (GOCC_ACTIN_FILAMENT): -1.254
ES (GOCC_ACTIN_FILAMENT_BUNDLE): -0.3261
NES (GOCC_ACTIN_FILAMENT_BUNDLE): -1.244
ES (GOCC_ACTOMYOSIN): -0.3244
NES (GOCC_ACTOMYOSIN): -1.241
ES (GOCC_ADHERENS_JUNCTION): -0.2581
NES (GOCC_ADHERENS_JUNCTION): -1.126
ES (GOCC_AGGRESOME): -0.2349
NES (GOCC_AGGRESOME): -0.7784
ES [2]: -0.3086
NES [2]: -0.9733
ES [3]: -0.295
NES [3]: -0.8864
ES [4]: 0.3873
NES [4]: 1.216
ES [5]: 0.2561
NES [5]: 1.138
ES (GOCC_ANCHORING_JUNCTION): -0.2092
NES (GOCC_ANCHORING_JUNCTION): -1.012
ES (GOCC_APICAL_DENDRITE): 0.2719
NES (GOCC_APICAL_DENDRITE): 0.9188
ES (GOCC_APICAL_JUNCTION_COMPLEX): -0.2633
NES (GOCC_APICAL_JUNCTION_COMPLEX): -1.112
NES (GOCC_APICAL_PART_OF_CELL): -1.058
ES (GOCC_APICAL_PLASMA_MEMBRANE): -0.2102
NES (GOCC_APICAL_PLASMA_MEMBRANE): -0.9645
ES [6]: 0.3169
NES [6]: 1.031
ES (GOCC_ASTROCYTE_PROJECTION): -0.3925
NES (GOCC_ASTROCYTE_PROJECTION): -1.114
ES (GOCC_AXON): 0.1438
NES (GOCC_AXON): 0.9135
ES (GOCC_AXONAL_GROWTH_CONE): -0.3404
NES (GOCC_AXONAL_GROWTH_CONE): -1.093
ES (GOCC_AXONEMAL_DYNEIN_COMPLEX): 0.3859
NES (GOCC_AXONEMAL_DYNEIN_COMPLEX): 1.304
ES (GOCC_AXON_CYTOPLASM): 0.2547
NES (GOCC_AXON_CYTOPLASM): 1.164
ES (GOCC_AXON_INITIAL_SEGMENT): 0.4283
NES (GOCC_AXON_INITIAL_SEGMENT): 1.345
ES (GOCC_A_BAND): 0.25
NES (GOCC_A_BAND): 0.9628
ES (GOCC_BASAL_PART_OF_CELL): -0.1821
NES (GOCC_BASAL_PART_OF_CELL): -0.8247
ES (GOCC_BASEMENT_MEMBRANE): -0.254
NES (GOCC_BASEMENT_MEMBRANE): -1.016
ES [7]: -0.1689
NES [7]: -0.748
ES (GOCC_BRUSH_BORDER): -0.2399
NES (GOCC_BRUSH_BORDER): -0.9517
ES (GOCC_BRUSH_BORDER_MEMBRANE): -0.2961
NES (GOCC_BRUSH_BORDER_MEMBRANE): -1.077
ES (GOCC_CALCIUM_CHANNEL_COMPLEX): 0.2463
NES (GOCC_CALCIUM_CHANNEL_COMPLEX): 1.14
ES [8]: -0.4463
NES [8]: -1.3142
ES (GOCC_CATENIN_COMPLEX): -0.2945
NES (GOCC_CATENIN_COMPLEX): -0.976
ES (GOCC_CAVEOLA): -0.3204
NES (GOCC_CAVEOLA): -1.246
ES (GOCC_CELL_CELL_JUNCTION): -0.2145
NES (GOCC_CELL_CELL_JUNCTION): -1.0148
ES (GOCC_CELL_CORTEX): -0.1978
NES (GOCC_CELL_CORTEX): -0.9024
ES (GOCC_CELL_LEADING_EDGE): -0.2171
NES (GOCC_CELL_LEADING_EDGE): -1.019
ES (GOCC_CELL_PROJECTION_MEMBRANE): -0.2083
NES (GOCC_CELL_PROJECTION_MEMBRANE): -0.9603
ES (GOCC_CELL_SUBSTRATE_JUNCTION): -0.2431
NES (GOCC_CELL_SUBSTRATE_JUNCTION): -1.147
ES (GOCC_CENTRIOLE): -0.2881
NES (GOCC_CENTRIOLE): -1.216
ES (GOCC_CHLORIDE_CHANNEL_COMPLEX): -0.2836
NES (GOCC_CHLORIDE_CHANNEL_COMPLEX): -0.9663
ES (GOCC_CILIARY_BASE): 0.2528
NES (GOCC_CILIARY_BASE): 0.961
ES (GOCC_CLATHRIN_COATED_PIT): -0.2024
NES (GOCC_CLATHRIN_COATED_PIT): -0.7808
ES [9]: 0.2155
NES [9]: 1.069
ES [10]: 0.4212
NES [10]: 1.37
ES (GOCC_CLATHRIN_VESICLE_COAT): 0.3364
NES (GOCC_CLATHRIN_VESICLE_COAT): 1.242
ES (GOCC_CLEAVAGE_FURROW): -0.3471
NES (GOCC_CLEAVAGE_FURROW): -1.262
ES [11]: -0.237
NES [11]: -1.007
ES [12]: 0.1866
NES [12]: 1.106
ES [13]: -0.2589
NES [13]: -0.7763
ES [14]: -0.3515
NES [14]: -0.9802
ES (GOCC_CONTRACTILE_FIBER): -0.2072
NES (GOCC_CONTRACTILE_FIBER): -0.9191
ES (GOCC_COP9_SIGNALOSOME): -0.3469
NES (GOCC_COP9_SIGNALOSOME): -1.155
ES [15]: -0.2118
NES [15]: -0.8428
ES (GOCC_COPII_VESICLE_COAT): -0.4515
NES (GOCC_COPII_VESICLE_COAT): -1.232
ES (GOCC_COPI_COATED_VESICLE): -0.2642
NES (GOCC_COPI_COATED_VESICLE): -0.8488
ES [16]: -0.3401
NES [16]: -0.9657
ES (GOCC_CORNIFIED_ENVELOPE): 0.3443
NES (GOCC_CORNIFIED_ENVELOPE): 1.199
ES [17]: 0.2476
NES [17]: 1.1733
ES (GOCC_CORTICAL_CYTOSKELETON): 0.2021
NES (GOCC_CORTICAL_CYTOSKELETON): 0.9922
ES (GOCC_COSTAMERE): -0.2887
NES (GOCC_COSTAMERE): -0.8049
ES [18]: -0.2931
NES [18]: -0.9884
ES [19]: -0.3293
NES [19]: -1.072
ES [20]: -0.24
NES [20]: -1.027
ES [21]: -0.2661
NES [21]: -0.767
ES (GOCC_CYTOSOLIC_RIBOSOME): -0.2925
NES (GOCC_CYTOSOLIC_RIBOSOME): -1.197
ES [22]: -0.3292
NES [22]: -1.158
ES (GOCC_DENDRITE_CYTOPLASM): 0.2477
NES (GOCC_DENDRITE_CYTOPLASM): 0.9538
ES (GOCC_DENDRITE_MEMBRANE): 0.196
NES (GOCC_DENDRITE_MEMBRANE): 0.8217
ES (GOCC_DENDRITIC_SPINE_MEMBRANE): 0.3045
NES (GOCC_DENDRITIC_SPINE_MEMBRANE): 0.9565
ES (GOCC_DENSE_CORE_GRANULE): 0.3269
NES (GOCC_DENSE_CORE_GRANULE): 1.223
ES (GOCC_DNA_PACKAGING_COMPLEX): -0.4035
NES (GOCC_DNA_PACKAGING_COMPLEX): -1.255
ES (GOCC_DYNEIN_COMPLEX): 0.2821
NES (GOCC_DYNEIN_COMPLEX): 1.209
ES (GOCC_EARLY_ENDOSOME): 0.158
NES (GOCC_EARLY_ENDOSOME): 0.9512
ES (GOCC_EARLY_ENDOSOME_MEMBRANE): -0.2466
NES (GOCC_EARLY_ENDOSOME_MEMBRANE): -1.063
ES (GOCC_ENDOCYTIC_VESICLE_LUMEN): -0.3339
NES (GOCC_ENDOCYTIC_VESICLE_LUMEN): -0.9112
ES (GOCC_ENDOPEPTIDASE_COMPLEX): -0.1955
NES (GOCC_ENDOPEPTIDASE_COMPLEX): -0.748
ES [23]: -0.1806
NES [23]: -0.8249
ES [24]: -0.1866
NES [24]: -0.7871
ES (GOCC_ENDOPLASMIC_RETICULUM_QUALITY_CONTROL_COMPARTMENT): 0.2788

Source: article PMC11157767 (Molecular Cancer, 2024)
